# Results are given in words; binding and its absence hold for the method and conditions named. Binding can be weak; no strength is given.
# Sequences of proteins named here, by UniProt entry; tags and fusion partners are left off. A change or cut given only in a name is not applied to a line headed by its entry. A line that says so, or that is headed by a name, gives the form on record, which may keep a tag or linker. Residues count along the entry.
# UniProt Q8GYY1: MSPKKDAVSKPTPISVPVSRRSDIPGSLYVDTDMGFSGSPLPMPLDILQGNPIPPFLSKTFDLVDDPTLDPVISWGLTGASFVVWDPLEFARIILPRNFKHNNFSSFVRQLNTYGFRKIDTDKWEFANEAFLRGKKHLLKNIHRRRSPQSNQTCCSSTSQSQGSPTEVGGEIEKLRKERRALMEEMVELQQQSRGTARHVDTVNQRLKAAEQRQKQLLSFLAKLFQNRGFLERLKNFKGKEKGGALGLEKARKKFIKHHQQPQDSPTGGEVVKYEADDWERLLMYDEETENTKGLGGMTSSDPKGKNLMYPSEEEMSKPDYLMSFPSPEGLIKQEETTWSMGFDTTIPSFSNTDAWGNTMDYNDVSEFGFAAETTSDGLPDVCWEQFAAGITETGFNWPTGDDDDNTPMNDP
# CRY1^(PHR WT) in pGADT7 (AD) (Q43125, residues 1-508): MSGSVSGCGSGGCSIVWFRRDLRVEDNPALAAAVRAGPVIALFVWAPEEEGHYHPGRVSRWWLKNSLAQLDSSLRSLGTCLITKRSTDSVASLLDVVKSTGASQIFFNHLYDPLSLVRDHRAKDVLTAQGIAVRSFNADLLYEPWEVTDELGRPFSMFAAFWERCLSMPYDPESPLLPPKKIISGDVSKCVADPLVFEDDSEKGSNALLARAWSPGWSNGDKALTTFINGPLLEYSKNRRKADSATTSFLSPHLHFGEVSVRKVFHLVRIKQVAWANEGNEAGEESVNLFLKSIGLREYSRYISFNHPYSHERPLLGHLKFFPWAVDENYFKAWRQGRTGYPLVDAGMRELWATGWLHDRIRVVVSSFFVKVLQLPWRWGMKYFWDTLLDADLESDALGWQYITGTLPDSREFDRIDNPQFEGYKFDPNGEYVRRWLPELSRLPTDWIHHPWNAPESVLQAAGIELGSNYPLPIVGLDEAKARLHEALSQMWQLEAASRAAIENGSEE
# CRY1^(PHR R211E R435E) in pGADT7 (AD) (Q43125, form named): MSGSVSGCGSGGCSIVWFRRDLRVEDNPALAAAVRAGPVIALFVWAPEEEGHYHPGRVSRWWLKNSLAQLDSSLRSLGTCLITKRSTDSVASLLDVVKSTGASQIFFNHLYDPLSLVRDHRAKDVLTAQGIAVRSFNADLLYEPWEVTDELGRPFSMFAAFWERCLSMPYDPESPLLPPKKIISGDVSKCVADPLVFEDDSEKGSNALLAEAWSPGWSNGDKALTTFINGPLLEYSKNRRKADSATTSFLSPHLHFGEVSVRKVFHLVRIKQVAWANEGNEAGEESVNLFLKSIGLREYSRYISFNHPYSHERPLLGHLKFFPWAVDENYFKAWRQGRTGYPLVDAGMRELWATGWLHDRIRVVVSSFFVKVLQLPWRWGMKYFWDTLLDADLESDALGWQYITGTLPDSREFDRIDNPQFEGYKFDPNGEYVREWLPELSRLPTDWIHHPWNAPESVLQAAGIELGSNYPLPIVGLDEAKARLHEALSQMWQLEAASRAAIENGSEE
# Columns and labels:
# [1] = biological target: HsFA3 E188R in pGBKT7 (BD) (Arabidopsis thaliana) (UniProt Q8GYY1); experiment: two-hybrid; CRY1 as prey in pGADT7 (AD), HsF as bait in pGBKT7 (BD), co-transformed into yeast Y187; liquid beta-galactosidase assay with CPRG, Miller units; not detected (ND) if OD578 <0.01 after 3 h of color development
# [2] = biological target: HsFA3^E173R in pGBKT7 (BD) (Arabidopsis thaliana) (UniProt Q8GYY1); experiment: as above
binding [1],binding [2],Substance
binds,,CRY1^(PHR R211E R435E) in pGADT7 (AD) (from UniProt Q43125 1-508) (domain or fragment)
,binds,CRY1^(PHR WT) in pGADT7 (AD) (from UniProt Q43125 1-508) (domain or fragment)

# Source: publication PMC12753876
